Test results from PubChem BioAssay AID1487 (National Center for Advancing Translational Sciences (NCATS), 2009).
“And” between values parts separate entries of the source, which are not always exact repeats. Identical values can stand only once. The list shows a part of the results. Shown are side measurements of this screen, not its main read-out; they come without a call. Most of these compounds were active or inconclusive in the main read-out, so they are no random draw. The note in brackets gives the kind of curve behind each potency; many fits are weak.

Experiment: qHTS Assay for Modulators of Lamin A Splicing
Details: HeLa LMNA splicing GFP/RFP minigene ratio, 48 h
Procedure, shortened: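 S3 HeLa stable clones carrying a lamin A-EGFP splicing minigene plus DsRed2 were seeded at 600 cells/well in Opti-MEM with 2% FBS, pin-dosed and incubated 48 h at 37°C. Acumen cytometry (488 nm) gave the GFP/RFP total-intensity ratio.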

[1] = measured here: RFP viability control channel
[2] = measured here: GFP splicing reporter channel

| SMILES | AC50 [1] | AC50 [2] |
| --- | --- | --- |
| COC(=O)c1c(CCl)noc1C(=O)NC(C)C | 35.5 µM [rising, single point] | – |
| Cc1ccc(S(=O)(=O)N2CCN(c3ccc(C(F)(F)F)cc3[N+](=O)[O-])CC2)cc1 | 7.08 µM [rising, partial curve] | – |
| Cc1nnc(C)n1/N=C/c1ccc(C(C)C)cc1 | – | 22.4 µM [rising, single point] |
| CCOC(=O)c1ccc(NC(=S)N(CCCN2CCN(CC)CC2)Cc2ccco2)cc1 | – | 0.0794 µM [falling, full curve, poor fit] |
| O=[N+]([O-])c1cc(C(F)(F)F)ccc1NCCNC(=S)Nc1ccc(Cl)cc1 | 17.8 µM [falling, single point] | 28.2 µM [falling, single point] |
| C=CCn1c(SCCCc2ccccc2)nc2c1c(=O)[nH]c(=O)n2C | 35.5 µM [rising, single point] | 31.6 µM [rising, single point] |
| CC1COC(C)(CC(=O)NN2C(=O)c3ccccc3C2=O)O1 (stereo not drawn) | 1.26 µM [rising, single point] | – |
| CC(=O)c1cc2c(cc1NC(=O)CSc1nc3ccc(C)cc3[nH]1)OCO2 | 0.0224 µM [rising, full curve, poor fit] | – |
| Clc1ccc2nc(SCc3nnc(-c4ccccc4)o3)[nH]c2c1 | 12.6 µM [rising, partial curve] | 11.2 µM [rising, partial curve, poor fit] |
| COC(=O)C1=C(C)N(Cc2ccco2)C(=O)/C1=C\c1ccc([N+](=O)[O-])cc1 | 20 µM [falling, partial curve, poor fit] | 11.2 µM [falling, single point] |
| O=C(NCc1ccccn1)c1cc(-c2ccc(Cl)cc2)nc2ccccc12 | 20 µM [rising, single point] | 35.5 µM [rising, single point] |
| O=C(N/N=C/c1cc(Br)cs1)c1ccccc1[N+](=O)[O-] | 12.6 µM [rising, partial curve] | – |
| COc1cc(C=C(c2nc3ccccc3s2)c2nc3ccccc3s2)ccc1O | 15.8 µM [rising, partial curve] | – |
| CCn1c(COc2cc(C)cc(C)c2)nnc1SCC(=O)N1CCN(c2ccccc2)CC1 | 10 µM [rising, partial curve, poor fit] | – |
| COc1cc(C(=O)OCC(=O)Nc2sccc2C(N)=O)cc(OC)c1OC | 3.16 µM [rising, full curve] | – |
| CCN1CCN(C(c2ccc(F)cc2)c2c(O)cc(C)n(CCOC)c2=O)CC1 (stereo not drawn) | 2.82 µM [rising, single point] | 0.562 µM [rising, full curve, poor fit] |
| CCC(=O)Oc1c(S(=O)(=O)c2ccc(C)cc2)c(C)nn1C(C)(C)C | 22.4 µM [rising, single point] | 15.8 µM [rising, single point] |
| CC(C)(C)NC(=O)CSc1nc2scc(-c3ccccc3)c2c(=O)[nH]1 | – | 35.5 µM [rising, single point] |
| Cc1cc(C(=O)CSc2nc(N)cc(=O)[nH]2)c(C)n1CCc1ccc(F)cc1 | 6.31 µM [rising, full curve] | 2.82 µM [rising, partial curve] |

| SMILES | AC50 [1] | AC50 [2] |
| --- | --- | --- |
| CNC(=O)c1cc2c(=O)n3cc(C)ccc3nc2n(Cc2ccco2)c1=N | 10 µM [rising, partial curve] | – |
| Cc1ccc(S(=O)(=O)N[C@@H](C)C(=O)N2CCC(C(=O)N3CCC[C@H]3C(=O)O)CC2)cc1 | – | 2.24 µM [rising, partial curve, poor fit] |
| COc1ccc(/C=C/C(=O)NC2CCCCCCC2)cc1S(=O)(=O)N1CCOCC1 | 12.6 µM [rising, single point] | – |
| Cc1ccc(/C=N/NC(=O)C2=NNC(c3ccccc3)(c3ccccc3)C2)c(O)c1 | 17.8 µM [rising, partial curve] | – |
| COc1ccc(C2=CC(c3ccc(OC)c(OC)c3)NC(=S)N2)cc1 (stereo not drawn) | – | 0.708 µM [rising, full curve, poor fit] |
| CN(C)c1ccc(CNS(=O)(=O)c2ccc3[nH]c4c(c3c2)CCCCC4)cc1 | – | 4.47 µM [falling, full curve] |
| COc1ccc(Nc2nnc(SCC(=O)c3cc(C)n(CC4CCCO4)c3C)s2)cc1 (stereo not drawn) | 5.62 µM [falling, single point] | 31.6 µM [falling, single point] |
| COc1ccc(C(=O)/C=C/c2ccc(OC)c(COc3ccc(F)cc3)c2)cc1 | – | 2.24 µM [rising, partial curve] |
| Cc1cccc(Nc2nnc(-c3ccc(N4CCOCC4)c([N+](=O)[O-])c3)c3ccccc23)c1 | 31.6 µM [rising, single point] | – |
| Clc1ccccc1C(c1ccccc1)(c1ccccc1)n1ccnc1 | 4.47 nM [rising, full curve, poor fit] and 25.1 µM [falling, partial curve] | 3.16 µM [falling, partial curve] and 17.8 µM [falling, partial curve, poor fit] |
| NC(=O)NO | – | 10 µM [falling, partial curve] |
| CO/N=C1\CN(c2nc3c(cc2F)c(=O)c(C(=O)O)cn3C2CC2)CC1CN (stereo not drawn) | 0.631 µM [rising, single point] | 11.2 µM [falling, partial curve] |
| NNC(=O)CN1C(c2ccccc2Br)=Nc2ccc(Br)cc2C1c1ccccc1 (stereo not drawn) | 15.8 µM [rising, partial curve] | – |
| COc1cc(/C=C(\C#N)C(N)=O)ccc1OCc1c(C)no[n+]1[O-] | 35.5 µM [falling, single point] | – |
| O=C(Oc1ccc(C(=S)N2CCOCC2)cc1Br)c1ccccc1F | – | 35.5 µM [rising, single point] |
| O=[N+]([O-])c1ccc(O)c(/C=N/Nc2ccc(Cl)nn2)c1 | 0.316 µM [falling, full curve] | 0.355 µM [falling, full curve] |
| NNC(=O)CN1C(c2ccc(Br)cc2)=Nc2ccc(Br)cc2C1c1ccccc1 (stereo not drawn) | 11.2 µM [rising, single point] | – |
| CCC(=O)Nc1ccc(NC(=S)NC(=O)/C=C/c2ccccc2)cc1 | 14.1 µM [rising, partial curve, poor fit] | – |
| Cc1ncoc1C(=O)Nc1cccc(Cl)c1 | 22.4 µM [rising, single point] | 15.8 µM [rising, single point] |

| SMILES | AC50 [1] | AC50 [2] |
| --- | --- | --- |
| O=C(CCc1nnc(Cc2ccc3c(c2)OCO3)o1)NCc1nc2ccccc2s1 | 12.6 µM [falling, partial curve] | – |
| COc1ccc(Br)cc1CN(C)CC(=O)Nc1c(Cl)ccc(C)c1Cl | 31.6 µM [rising, single point] | – |
| CCCNC(=O)c1ccccc1NC(=O)c1ccccc1N(C)S(=O)(=O)c1ccc(C)cc1 | 17.8 µM [rising, single point] | – |
| COc1ccc(S(=O)(=O)Nc2cccc(SC)c2)cc1OC | 15.8 µM [rising, single point] | – |
| CCc1nc2c(c(=O)c3ccccc3n2C)c(=O)n1CCc1ccc(OC)cc1 | 10 µM [rising, partial curve] | – |
| O=c1[nH]c2ccc(Br)cc2c(-c2ccccc2)c1CN1CCOCC1 | – | 35.5 µM [rising, single point] |
| Cc1ccc(S(=O)(=O)N/N=C\c2cn(-c3ccccc3)nc2-c2ccccc2)cc1 | 35.5 µM [falling, single point] | 22.4 µM [falling, partial curve, poor fit] |
| COc1ccc(C(C)n2c(C)c3c(C)nnc(C)c3c2C)cc1 (stereo not drawn) | 31.6 µM [falling, partial curve, poor fit] | 35.5 µM [falling, single point] |
| O=C(NCCOc1ccc(F)cc1)c1ccccc1SCc1ccccc1 | 22.4 µM [rising, partial curve] | – |
| O=C(N/N=C/c1cc2cc3c(cc2nc1Cl)OCCO3)c1ccccc1O | – | 0.0708 µM [rising, full curve, poor fit] |
| O=S1(=O)c2cccc3cccc(c23)N1Cc1ccc(-c2nnco2)cc1 | 31.6 µM [rising, single point] | – |
| CCC(=C(c1ccc(OC)cc1)c1ccc(OC)cc1)c1cn(CC(O)CN2CCN(C)CC2)c2ccccc12 (stereo not drawn) | 25.1 µM [falling, single point] | 25.1 µM [falling, partial curve] |
| CCNC(=S)N/N=C/c1cccc(OCc2c(F)cccc2Cl)c1 | 14.1 µM [rising, partial curve] | – |
| COc1ccccc1NC(=O)c1c(C)cc(C)nc1SCC(=O)Nc1ccc(C)c(C)c1 | 0.224 µM [rising, full curve, poor fit] | 1.78 µM [rising, partial curve] |
| Nc1n[nH]c(C2CC2)c1N=Nc1ccc(Cl)cc1 | – | 35.5 µM [falling, single point] |
| COc1ccc(CC(=O)N(c2ccccc2)c2nc(C)cs2)cc1 | 35.5 µM [rising, single point] | – |
| CC(C)(C)C(=O)NNC(=O)COc1ccc2ccccc2c1Br | 17.8 µM [rising, single point] | – |
| NCCOc1ccc(C23CC4CC(CC(C4)C2)C3)cc1 | 28.2 µM [falling, single point] | – |
